Reference: PubChem BioAssay AID1224829 (NIAID, 2016)

- Screen: 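Follow-up of TLR4-NF-kappaB regulators using six separate siRNAs for each gene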 (follow-up of hits)
- Cells: mouse RAW264.7 G9 macrophage reporter cells
- Knock-down reagent: single siRNA against mouse genes, 100 nM
- Timing: 2 days of siRNA knock-down, then 40 min of LPS before fixing
- Challenge: LPS (Salmonella minnesota R595) at 10 ng/ml
- Read-out: 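Imaging of GFP-p65 after 40 min of LPS; nuclear over perinuclear ring intensity ratio, scaled to plate median and non-targeting control wells, given as z-score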
- Scale: p65 translocation z-score and gene median z-score, per vendor: higher = more nuclear NF-kappaB p65 after LPS
- Hit rule: 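Active means the replicate-mean z-score lies beyond plus or minus 2, in either direction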
- Meaning of the calls: active = changed p65 translocation (either direction); inactive = no clear change
Shown is one part, drawn at random, of about 3,800 reagents tested. 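Calls cover raised and lowered translocation; gene median uses one vendor's three siRNAs; qiagen siRNAs acted more weakly than ambion siRNAs.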 Entries without a mark were called inactive.

Ctnna1 [SID315483891], siRNA vendor or control pool ambion single siRNA: p65 translocation z-score, replicate mean = 0.549; p65 translocation z-score, replicate 1 = 1.16; p65 translocation z-score, replicate 2 = -0.064; gene median z-score, per vendor = -1
Ctnna1 [SID315483892], siRNA vendor or control pool ambion single siRNA: p65 translocation z-score, replicate mean = -3.68 (active); p65 translocation z-score, replicate 1 = -3.67; p65 translocation z-score, replicate 2 = -3.69; gene median z-score, per vendor = -1
Ctnna1 [SID315483893], siRNA vendor or control pool ambion single siRNA: p65 translocation z-score, replicate mean = 0.266; p65 translocation z-score, replicate 1 = 2.48; p65 translocation z-score, replicate 2 = -1.94; gene median z-score, per vendor = -1
Ctnna1 [SID315483894], siRNA vendor or control pool qiagen single siRNA: p65 translocation z-score, replicate mean = 1.12; p65 translocation z-score, replicate 1 = 0.576; p65 translocation z-score, replicate 2 = 1.67; gene median z-score, per vendor = 0.156
Ctnna1 [SID315483895], siRNA vendor or control pool qiagen single siRNA: p65 translocation z-score, replicate mean = -0.445; p65 translocation z-score, replicate 1 = -0.264; p65 translocation z-score, replicate 2 = -0.626; gene median z-score, per vendor = 0.156
Ctnna1 [SID315483896], siRNA vendor or control pool qiagen single siRNA: gene median z-score, per vendor = 0.156
Eif6 [SID315484440], siRNA vendor or control pool ambion single siRNA: p65 translocation z-score, replicate mean = 2.83 (active); p65 translocation z-score, replicate 1 = 3.09; p65 translocation z-score, replicate 2 = 2.58; gene median z-score, per vendor = 2.83
Eif6 [SID315484441], siRNA vendor or control pool ambion single siRNA: p65 translocation z-score, replicate mean = 4.2 (active); p65 translocation z-score, replicate 1 = 5.07; p65 translocation z-score, replicate 2 = 3.34; gene median z-score, per vendor = 2.83
Eif6 [SID315484442], siRNA vendor or control pool ambion single siRNA: p65 translocation z-score, replicate mean = -1.96; p65 translocation z-score, replicate 1 = -1.91; p65 translocation z-score, replicate 2 = -2.01; gene median z-score, per vendor = 2.83
Opn4 [SID315485481], siRNA vendor or control pool ambion single siRNA: p65 translocation z-score, replicate mean = -4.24 (active); p65 translocation z-score, replicate 1 = -4.91; p65 translocation z-score, replicate 2 = -3.57; gene median z-score, per vendor = -3.57
Opn4 [SID315485482], siRNA vendor or control pool ambion single siRNA: p65 translocation z-score, replicate mean = -2.78 (active); p65 translocation z-score, replicate 1 = -2.78; gene median z-score, per vendor = -3.57
Opn4 [SID315485483], siRNA vendor or control pool ambion single siRNA: p65 translocation z-score, replicate mean = -4.02 (active); p65 translocation z-score, replicate 1 = -6.27; p65 translocation z-score, replicate 2 = -1.77; gene median z-score, per vendor = -3.57
Opn4 [SID315485484], siRNA vendor or control pool qiagen single siRNA: p65 translocation z-score, replicate mean = 1.21; p65 translocation z-score, replicate 1 = -0.174; p65 translocation z-score, replicate 2 = 2.6; gene median z-score, per vendor = -0.0865
Opn4 [SID315485485], siRNA vendor or control pool qiagen single siRNA: p65 translocation z-score, replicate mean = 0.349; p65 translocation z-score, replicate 1 = 0.00113; p65 translocation z-score, replicate 2 = 0.697; gene median z-score, per vendor = -0.0865
Opn4 [SID315485486], siRNA vendor or control pool qiagen single siRNA: p65 translocation z-score, replicate mean = -1.03; p65 translocation z-score, replicate 1 = -0.415; p65 translocation z-score, replicate 2 = -1.65; gene median z-score, per vendor = -0.0865
